In patent US20120046195A1 one finds binding data, which are given here for one molecule.

These are yes or no findings as the source states them, for the method shown. Some binding calls cover weakened binding; strength is not graded here. Sequences can lack the tags named with a protein.

This assay has as its target purified recombinant Bcl-B produced without GST tag (human) (UniProt Q9HD36). Description: SDS-PAGE, SDS-resistant dimer.

B1: purified recombinant Bcl-B produced without GST tag (protein)
chain: MVDQLRERTTMADPLRERTELLLADYLGYCAREPGTPEPAPSTPEAAVLRSAAARLRQIHRSFFSAYLGYPGNRFELVALMADSVLSDSPGPTWGRVVTLVTFAGTLLERGPLVTARWKKWGFQPRLKEQEGDVARDCQRLVALLSSRLMGQHRAWLQAQGGWDGFCHFFRTPFPLAFWRKQLV
With B1, the binding result is reported as “binds”.
